Laboratory results from patent US20030199671A1, “Binding molecules for Fc-region polypeptides” (priority 2001, published 2003).
No constants are given. Whether binding was seen depends on the method and setting. A result given as binding can be weak or reduced; the word gives no strength.

Target: Human IgG Fc fragment isolated from plasma (human)
Assay: column capture from tobacco extract

binding: binds
Binder: GDRRACSRDWSGALVWCAGHEPGPEGGGK (N-terminal acetylation; C-terminal amidation) [DX253]
